These are yes or no findings as the source states them, for the method shown. For some assays here: In cells and extracts the contact can be indirect. Some entries that bind do so weakly or less than the wild type. Tags and fused reporters may be left off the sequences shown.

Sequences of proteins named here, by UniProt entry; tags and fusion partners are left off.
UniProt Q9SZ06: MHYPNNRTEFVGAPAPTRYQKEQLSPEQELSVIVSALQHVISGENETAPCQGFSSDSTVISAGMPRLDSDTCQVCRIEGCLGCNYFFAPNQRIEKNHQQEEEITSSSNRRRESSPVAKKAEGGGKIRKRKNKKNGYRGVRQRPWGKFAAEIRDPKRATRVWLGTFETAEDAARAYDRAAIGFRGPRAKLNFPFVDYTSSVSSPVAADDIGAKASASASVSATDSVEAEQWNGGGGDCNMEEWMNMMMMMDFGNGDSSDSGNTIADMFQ
UniProt Q58G47: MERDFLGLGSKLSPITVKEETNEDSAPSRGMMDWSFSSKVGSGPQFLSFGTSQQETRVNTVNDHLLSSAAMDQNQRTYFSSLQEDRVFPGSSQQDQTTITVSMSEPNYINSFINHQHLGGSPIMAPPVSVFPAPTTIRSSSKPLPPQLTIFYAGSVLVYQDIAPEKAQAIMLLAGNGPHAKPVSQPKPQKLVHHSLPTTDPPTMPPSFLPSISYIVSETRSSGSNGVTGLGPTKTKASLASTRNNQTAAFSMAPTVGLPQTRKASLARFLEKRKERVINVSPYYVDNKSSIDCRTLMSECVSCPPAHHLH

For assay [1], the target named is T1, Strep-MYB51 (Arabidopsis thaliana) (UniProt O49782).
T1 sequence: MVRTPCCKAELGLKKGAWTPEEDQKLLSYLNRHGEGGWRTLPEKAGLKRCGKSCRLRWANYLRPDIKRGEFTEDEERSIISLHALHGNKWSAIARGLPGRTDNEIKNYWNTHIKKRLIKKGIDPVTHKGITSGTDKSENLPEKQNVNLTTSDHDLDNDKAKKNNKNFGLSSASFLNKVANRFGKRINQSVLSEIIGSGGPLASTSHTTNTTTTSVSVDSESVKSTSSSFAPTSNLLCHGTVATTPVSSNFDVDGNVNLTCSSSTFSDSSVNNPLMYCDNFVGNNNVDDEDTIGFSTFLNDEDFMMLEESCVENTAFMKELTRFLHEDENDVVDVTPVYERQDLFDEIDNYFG
Put plainly: pull-down.

Assay [2] has as its target ERF109 fused to the GAL4 BD (Arabidopsis thaliana) (UniProt Q9SZ06). The assay is described as follows: two-hybrid.
The target in assay [3] is T2, nYFP-JAZ10 (Arabidopsis thaliana) (UniProt Q93ZM9).
T2 sequence: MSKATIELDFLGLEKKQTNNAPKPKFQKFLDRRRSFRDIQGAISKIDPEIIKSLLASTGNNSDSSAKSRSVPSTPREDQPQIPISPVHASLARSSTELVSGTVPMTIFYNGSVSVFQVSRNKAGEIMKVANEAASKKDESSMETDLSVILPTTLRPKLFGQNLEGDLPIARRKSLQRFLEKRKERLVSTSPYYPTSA
The assay is described as follows: split reporter.

In assay [4] the target is T3, JAZ3 fused to the GAL4 BD (Arabidopsis thaliana) (UniProt Q9LVI4).
T3 sequence: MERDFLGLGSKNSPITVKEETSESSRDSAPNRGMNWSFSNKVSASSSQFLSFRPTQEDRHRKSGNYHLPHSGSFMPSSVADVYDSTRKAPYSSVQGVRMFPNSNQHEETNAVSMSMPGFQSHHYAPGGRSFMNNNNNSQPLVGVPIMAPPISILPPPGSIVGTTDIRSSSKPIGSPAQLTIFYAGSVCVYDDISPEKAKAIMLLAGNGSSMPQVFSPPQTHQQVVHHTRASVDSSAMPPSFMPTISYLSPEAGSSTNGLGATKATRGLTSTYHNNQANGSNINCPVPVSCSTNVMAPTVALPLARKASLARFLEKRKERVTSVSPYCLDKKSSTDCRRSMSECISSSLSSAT
The assay is described as follows: two-hybrid.

Assay [5] deals with T4, JAZ8 fused to the GAL4 BD (Arabidopsis thaliana) (UniProt Q8LBM2).
T4 sequence: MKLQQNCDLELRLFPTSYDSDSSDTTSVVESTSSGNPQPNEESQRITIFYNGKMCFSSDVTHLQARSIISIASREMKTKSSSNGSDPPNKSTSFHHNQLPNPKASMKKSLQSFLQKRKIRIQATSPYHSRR
The assay is described as follows: two-hybrid.

In assay [6] the target is T5, JAZ11 fused to the GAL4 BD (Arabidopsis thaliana) (UniProt Q9M246).
T5 sequence: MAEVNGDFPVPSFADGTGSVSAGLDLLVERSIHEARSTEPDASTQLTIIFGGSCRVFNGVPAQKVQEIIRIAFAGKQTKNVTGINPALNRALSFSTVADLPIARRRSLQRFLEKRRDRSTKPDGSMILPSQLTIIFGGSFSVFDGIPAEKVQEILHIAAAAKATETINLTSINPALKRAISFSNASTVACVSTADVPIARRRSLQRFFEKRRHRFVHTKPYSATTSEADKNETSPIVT
The assay is described as follows: two-hybrid.

Assay [7] concerns the target JAZ4 fused to the GAL4 BD (Arabidopsis thaliana) (UniProt Q58G47). The assay is described as follows: two-hybrid.
For assay [8], the target named is T6, JAZ7 fused to the GAL4 BD (Arabidopsis thaliana) (UniProt O64687).
T6 sequence: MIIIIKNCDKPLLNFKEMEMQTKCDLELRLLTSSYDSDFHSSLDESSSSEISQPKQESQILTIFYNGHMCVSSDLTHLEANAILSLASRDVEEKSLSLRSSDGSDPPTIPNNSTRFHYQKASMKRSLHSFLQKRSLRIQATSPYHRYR
Put plainly: two-hybrid.

Assay [9] addresses T7, JAZ10 fused to the GAL4 BD (Arabidopsis thaliana) (UniProt Q93ZM9).
T7 sequence: T2 sequence
The assay is described as follows: two-hybrid.

The target in assay [10] is T8, JAZ9 fused to the GAL4 BD (Arabidopsis thaliana) (UniProt Q8W4J8).
T8 sequence: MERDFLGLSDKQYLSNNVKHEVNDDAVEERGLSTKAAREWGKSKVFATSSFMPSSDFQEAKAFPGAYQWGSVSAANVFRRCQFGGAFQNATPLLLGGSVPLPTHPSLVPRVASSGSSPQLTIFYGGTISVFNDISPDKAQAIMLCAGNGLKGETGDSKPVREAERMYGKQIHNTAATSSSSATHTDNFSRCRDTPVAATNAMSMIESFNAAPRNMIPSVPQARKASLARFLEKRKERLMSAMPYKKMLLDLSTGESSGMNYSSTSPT
The assay is described as follows: two-hybrid.

B1: HA-JAZ10 (protein, UniProt Q93ZM9 1-197)
chain: T2 sequence
Take B1: the binding result in [1] was “binds”.

B2: unfused MYB51 (yeast three-hybrid bridge) (protein, UniProt O49782 1-352)
chain: T1 sequence
Consider B2, for which the binding result in [2] is “binds”.

B3: MYB51-cYFP (protein, UniProt O49782 1-352)
chain: T1 sequence
With B3, in assay [3], the binding result is on record as “binds”.

B4: MYB51 fused to the GAL4 AD (protein, UniProt O49782 1-352)
chain: T1 sequence
B4: the binding entry in assay [4] is on record as “no binding”; in assay [5], “no binding”; in [6], “no binding”; in assay [7] it was “no binding”; in assay [8], “no binding”; in [9], “binds”. Also, the binding result in [10] is reported as “no binding”.

B5: BPM3 (yeast two-hybrid fusion) (protein, UniProt O22286 1-408)
chain: MSTVGGIEQLIPDSVSTSFIETVNGSHQFTIQGYSLAKGMSPGKFIQSDIFSVGGYDWAIYFYPDGKNPEDQSSYISLFIALASDSNDIRALFELTLMDQSGKGKHKVHSHFDRALEGGPYTLKYKGSMWGYKRFFKRSALETSDYLKDDCLVINCTVGVVRARLEGPKQYGIVLPLSNMGQGLKDLLDSEVGCDIAFQVGDETYKAHKLILAARSPVFRAQFFGPIGNNNVDRIVIDDIEPSIFKAMLSFIYTDVLPNVHEITGSTSASSFTNMIQHLLAAADLYDLARLKILCEVLLCEKLDVDNVATTLALAEQHQFLQLKAFCLEFVASPANLGAVMKSEGFKHLKQSCPTLLSELLNTVAAADKSSTSGQSNKKRSASSVLGCDTTNVRQLRRRTRKEVRAVS
For B5, in assay [2], the binding entry is recorded as “binds”.

These data come from publication doi:10.1101/643494.
